The list shows a part of the results. The data scatter; read single values as rough.
Target: T1, FBXO45 C17 (UniProt P0C2W1)
T1 sequence (whole entry): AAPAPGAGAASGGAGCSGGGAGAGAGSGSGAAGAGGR
Assay: log2 mean competition ratio of IA-DTB cysteine labelling (DMSO/compound) (log2 ratio); higher = stronger cysteine engagement by compound
Conditions: 50 µM; treatment time: 4 h; cell line lysate: HEK293T
Method: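 IA-DTB competitive cysteine chemoproteomics in HEK293T RIPA lysate. Lysates were treated with compound 29 or 30 at 50 or 200 µM for 4 h, then IA-DTB (500 µM, 1 h), trypsin-digested, NeutrAvidin-enriched and analysed by diaPASEF. Competition ratio = intensity DMSO / intensity compound (n=4 treated, n=64 DMSO); binding: mean log2 CR ≥ 1 and p ≤ 0.05 plus QC filters. Target is the cysteine site.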

| Structure (SMILES) | log2 mean competition ratio |
| --- | --- |
| O=C(CCl)N[C@H]1CCCc2ccccc21 | -0.317 |
| O=C(CCl)N[C@@H]1CCCc2ccccc21 | -0.227 |

Same assay, conditions: 200 µM; treatment time: 4 h; cell line lysate: HEK293T

| Structure (SMILES) | log2 mean competition ratio |
| --- | --- |
| O=C(CCl)N[C@H]1CCCc2ccccc21 | -0.162 |
| O=C(CCl)N[C@@H]1CCCc2ccccc21 | -0.0113 |
